For the data set, the system named is P. falciparum NF54. As to the kind of experiment: In vitro microplate assay against P. falciparum NF54 (3H-hypoxanthine incorporation, erythrocytic stages). It is filed as cell-based, Plasmodium falciparum. The note with it: selectivity index, L-6 cells vs P.f. NF54. The procedure:
All newly synthesized compounds were tested for their antiplasmodial activity against the chloroquine-sensitive strain Plasmodium falciparum NF54. Cytotoxicity was determined using rat skeletal myofibroblasts (L-6 cells). As standards chloroquine and podophyllotoxin were used.
In vitro activity against erythrocytic stages of P. falciparum was determined with a ^3H-hypoxanthine incorporation assay, using the chloroquine sensitive NF54 strain [44]. Chloroquine (Sigma C6628) was used as standard. Test compounds were dissolved in DMSO at 10 mg/mL and added to parasite cultures incubated in RPMI 1640 medium without hypoxanthine, supplemented with HEPES (5.94 g/L, NaHCO3 (2.1 g/L), neomycin (100 U/mL), Albumax (5 g/L) and washed human red blood cells A^+ at 2.5% hematocrit (0.3% parasitemia). Serial drug dilutions of 11 3-fold dilution steps (covering a range from 100–0.002 µg/mL) were prepared. The 96-well plates were incubated at a humidified atmosphere at 37 °C; 4% CO2, 3% O2, 93% N2. After 48 h, 0.05 mL of ^3H-hypoxanthine (=0.5 µCi) was added to each well. The plates were incubated for another 24 h under the same conditions. […] The dried filters were inserted into a plastic foil with 10 mL of scintillation fluid and counted in a Betaplate liquid scintillation counter. IC50 values were determined from sigmoidal inhibition curves by linear regression using Microsoft Excel. […]

With `CC(C)(C)OC(=O)N1CCN(c2ccccc2NC(=O)c2cccc(C(F)(F)F)c2Oc2ccc(F)cc2)CC1` [Compound 1, tert-Butyl-4-{2-[2-(4-fluorophenoxy)-3-(trifluoromethyl)benzamido]phenyl}piperazine-1-carboxylate], the “S.I. = IC50 (Cyt.)/IC50 (P.f. NF54)” value was found to be 316.9. For the molecule `CCN(CC)CCCC(C)Nc1ccnc2cc(Cl)ccc12` (centres unmarked) [CQ, chloroquine, reference compound], the “S.I. = IC50 (Cyt.)/IC50 (P.f. NF54)” value turned out to be 9672.
